Data taken from the supplement of paper PMC11098740.
Counter-ions that a name gives are not always drawn. Some of the results follow. Repeats are few or missing, and single values can be far off.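 The assay uses a mixed pool of 41 HAP1 clones in which 61 cancer-associated proteins bear intron-inserted fluorescent tags, and clones are distinguished by image pattern. Results are compared against DMSO-treated control wells, and the BRD4 degrader dBET6 is the positive control.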

Target: BRD4 (intron 10 mScarlet tag, HAP1) (UniProt O60885)
Experiment: BRD4 median nuclear fluorescence intensity change vs DMSO (log2 fold change); higher = more BRD4 protein
Details: 6 h

Row | Compound | BRD4 median nuclear fluorescence intensity change (log2)
1 | c1ccc2[nH]c(-c3cscn3)nc2c1 [thiabendazole] (10 µM) | 0.0111
2 | CC[C@]1(O)C[C@H]2CN(CCc3c([nH]c4ccccc34)[C@@](C(=O)OC)(c3cc4c(cc3OC)N(C=O)[C@H]3[C@@](O)(C(=O)OC)[C@H](OC(C)=O)[C@]5(CC)C=CCN6CC[C@]43[C@@H]65)C2)C1 [vincristine] (0.246914 µM) | 0.0571
3 | CCC1(c2ccccc2)NC(=O)N(C)C1=O (centres undefined) [mephenytoin] (10 µM) | 0.0439
4 | CNC(=O)c1ccc(N2C(=S)N(c3ccc(C#N)c(C(F)(F)F)c3)C(=O)C2(C)C)cc1F [enzalutamide] (20 µM) | -0.0293
5 | CC1=NN(c2ccc(C)c(C)c2)C(=O)/C1=N\Nc1cccc(-c2cccc(C(=O)O)c2)c1O [eltrombopag] (10 µM) | -0.00732
6 | CC(=O)NO [acetohydroxamic acid] (10 µM) | 0.171
7 | CCCSc1ccc2[nH]c(NC(=O)OC)nc2c1 [albendazole] (10 µM) | -0.0171
8 | CCC(=O)NCC[C@@H]1CCc2ccc3c(c21)CCO3 [ramelteon] (10 µM) | 0.163
9 | O=C(Nc1ccc([N+](=O)[O-])cc1Cl)c1cc(Cl)ccc1O [niclosamide] (9.99966 µM) | 0.036
10 | C[C@](N)(Cc1ccc(O)cc1)C(=O)O [metyrosine] (10 µM) | 0.0811
11 | Nc1nc2ccc(OC(F)(F)F)cc2s1 [riluzole] (10.0074 µM) | 0.046
12 | CC(=O)Nc1cccc(-n2c(=O)n(C3CC3)c(=O)c3c(Nc4ccc(I)cc4F)n(C)c(=O)c(C)c32)c1 [trametinib] (10 µM) | 0.0828
13 | Nc1nc(N)c2nc(-c3ccccc3)c(N)nc2n1 [triamterene] (9.99945 µM) | 0.0677
14 | O=C(c1ccc(OCCN2CCCCC2)cc1)c1c(-c2ccc(O)cc2)sc2cc(O)ccc12 [raloxifene] (20 µM) | 0.0692
15 | CC(=O)c1c(C)c2cnc(Nc3ccc(N4CCNCC4)cn3)nc2n(C2CCCC2)c1=O [palbociclib] (10 µM) | 0.142
16 | Nc1c2c(nc3ccccc13)CCCC2 [tacrine] (9.99926 µM) | 0.00541
17 | O=C(CCCCCCC(=O)Nc1ccccc1)NO [vorinostat] (3.889 µM) | -0.065
18 | CC(=O)OC[C@H]1O[C@@H]([S-])[C@H](OC(C)=O)[C@@H](OC(C)=O)[C@@H]1OC(C)=O.CCP(CC)CC.[Au+] [auranofin] (10 µM) | 0.0501
19 | COc1cc(N)c(Cl)cc1C(=O)NC1CCN(CCCOc2ccc(F)cc2)CC1OC (centres undefined) [cisapride] (10.00071305 µM) | 0.0221
20 | C[C@]12CCC(=O)C=C1C=C[C@@H]1[C@@H]2CC[C@@]2(C)[C@H]1CC[C@@]21CCC(=O)O1 [canrenone] (9.99944 µM) | 0.0224

Compounds 14–16 from above:
Row | Compound | BRD4 median nuclear fluorescence intensity change (log2)
14 | O=C(c1ccc(OCCN2CCCCC2)cc1)c1c(-c2ccc(O)cc2)sc2cc(O)ccc12 [raloxifene] (20 µM) | 0.0692
15 | CC(=O)c1c(C)c2cnc(Nc3ccc(N4CCNCC4)cn3)nc2n(C2CCCC2)c1=O [palbociclib] (10 µM) | 0.142
16 | Nc1c2c(nc3ccccc13)CCCC2 [tacrine] (9.99926 µM) | 0.00541

(list continues)

Row | Compound | BRD4 median nuclear fluorescence intensity change (log2)
21 | NC(=O)c1ncn([C@@H]2O[C@H](COP(=O)(O)OP(=O)(O)OP(=O)(O)O)[C@@H](O)[C@H]2O)n1 [ribavirin 5'-triphosphate] (10 µM) | -0.0568
22 | CC(N/C(=N\C#N)Nc1ccncc1)C(C)(C)C (centres undefined) [pinacidil] (10 µM) | -0.00458
23 | CC[C@]1(O)C[C@@H]2CN(CCc3c([nH]c4ccccc34)[C@@](C(=O)OC)(c3cc4c(cc3OC)N(C)[C@H]3[C@@](O)(C(=O)OC)[C@H](OC(C)=O)[C@]5(CC)C=CCN6CC[C@]43[C@@H]65)C2)C1 [vinblastine sulfate] (0.73008 µM) | 0.0684
24 | CN[C@@H]1C[C@H]2O[C@@](C)([C@@H]1OC)n1c3ccccc3c3c4c(c5c6ccccc6n2c5c31)C(=O)N[C@H]4O [ucn-01 (7-hydroxystaurosporine)] (10 µM) | -0.232
25 | NC[C@@H]1O[C@H](O[C@H]2[C@@H](O)[C@H](O[C@@H]3[C@@H](O)[C@H](N)C[C@H](N)[C@H]3O[C@H]3O[C@H](CO)[C@@H](O)[C@H](O)[C@H]3N)O[C@@H]2CO)[C@H](N)[C@@H](O)[C@@H]1O [paromomycin] (10 µM) | 0.0368
26 | COc1cnc(NS(=O)(=O)c2ccc(N)cc2)nc1 [sulfameter] (10 µM) | 0.0565
27 | Cc1ccc(Nc2nccc(N(C)c3ccc4c(C)n(C)nc4c3)n2)cc1S(N)(=O)=O [pazopanib] (11.455 µM) | 0.0311
28 | CC12CC3CC(C)(C1)CC(N)(C3)C2 [memantine] (9.99939 µM) | 0.0548
29 | N[C@@H](Cc1cc(I)c(Oc2ccc(O)c(I)c2)c(I)c1)C(=O)O [liothyronine] (10 µM) | -0.0354
30 | CN(C)c1nc(N(C)C)nc(N(C)C)n1 [altretamine] (20 µM) | -0.0669
31 | O=c1[nH]cc(F)c(=O)[nH]1 [5-fluorouracil] (20 µM) | -0.0207
32 | Cc1[nH]c2ccccc2c1CCNCc1ccc(/C=C/C(=O)NO)cc1 [panobinostat] (20 µM) | 0.00289
33 | c1ccc(CC2=NCCN2)cc1 [tolazoline] (10 µM) | 0.0441
34 | COc1ccccc1OCC(O)CN1CCN(CC(=O)Nc2c(C)cccc2C)CC1 (centres undefined) [ranolazine] (10 µM) | 0.03
35 | Cc1ccc(Cl)c(Nc2ccccc2C(=O)O)c1Cl [meclofenamate (sodium)] (10 µM) | 0.0355
36 | O=NN(CCCl)C(=O)NCCCl [carmustine] (20 µM) | -0.0298
37 | CO/N=C(\C(=O)N[C@@H]1C(=O)N2C(C(=O)O)=C(CSc3nnnn3C)CS[C@H]12)c1csc(N)n1 [cefmenoxime] (10 µM) | 0.0392
38 | C#CCN(C)Cc1ccccc1 [pargyline] (10.0004 µM) | 0.0792
39 | C#C[C@]1(O)CC[C@H]2[C@@H]3CCC4=CC(=O)CC[C@@H]4[C@H]3CC[C@@]21CC [levonorgestrel] (9.99976 µM) | 0.0645
